Results published in article PMC9813358, “Insights into the GSDMB-mediated cellular lysis and its targeting by IpaH7.8” (Nature Communications, 2023).

The chains behind the UniProt entries cited, without tags or fusion partners. Where a name states a change or a piece, a line headed by the entry shows the natural chain unless it says otherwise. Residues count along the entry.
UniProt Q8TAX9: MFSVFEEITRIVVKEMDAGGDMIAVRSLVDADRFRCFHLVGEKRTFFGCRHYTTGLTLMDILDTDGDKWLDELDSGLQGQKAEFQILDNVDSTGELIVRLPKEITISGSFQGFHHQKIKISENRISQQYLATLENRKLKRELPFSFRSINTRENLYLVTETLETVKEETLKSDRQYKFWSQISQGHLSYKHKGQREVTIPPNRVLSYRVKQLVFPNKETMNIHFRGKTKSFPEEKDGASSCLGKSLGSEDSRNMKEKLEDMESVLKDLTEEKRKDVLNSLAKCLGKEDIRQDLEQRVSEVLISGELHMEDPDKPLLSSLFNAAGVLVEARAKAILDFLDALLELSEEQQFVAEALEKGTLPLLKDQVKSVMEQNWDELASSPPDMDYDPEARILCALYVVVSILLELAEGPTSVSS
UniProt P18014, residues 23-565: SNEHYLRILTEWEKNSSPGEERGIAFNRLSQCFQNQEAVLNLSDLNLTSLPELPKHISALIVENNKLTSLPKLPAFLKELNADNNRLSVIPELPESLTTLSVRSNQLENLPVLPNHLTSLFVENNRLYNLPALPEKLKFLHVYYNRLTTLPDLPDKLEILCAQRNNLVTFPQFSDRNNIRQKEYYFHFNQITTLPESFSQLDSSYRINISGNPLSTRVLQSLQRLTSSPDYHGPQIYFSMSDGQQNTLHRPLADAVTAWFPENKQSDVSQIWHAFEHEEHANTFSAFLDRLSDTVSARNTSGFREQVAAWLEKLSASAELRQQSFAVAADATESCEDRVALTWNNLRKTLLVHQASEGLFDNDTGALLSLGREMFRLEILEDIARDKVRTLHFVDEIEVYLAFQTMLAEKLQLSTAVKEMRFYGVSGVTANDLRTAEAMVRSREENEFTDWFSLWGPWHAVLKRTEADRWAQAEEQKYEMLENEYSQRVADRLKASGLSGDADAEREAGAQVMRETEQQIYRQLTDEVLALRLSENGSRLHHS

Tests used:
Assay in all cases: pull-down; MBP-tagged GSDMB proteins (~100 µg) on amylose resin, tag-free IpaH7.8 (~400 µg) added; 25 mM Tris-HCl pH 8.0, 200 mM NaCl, 3 mM β-mercaptoethanol, 4 °C; eluted with maltose, SDS-PAGE; both purified
MBP-GSDMB A18D (human) = MBP-GSDMB A18D (human) (UniProt Q8TAX9)
MBP-GSDMB K14A (human) = MBP-GSDMB K14A (human) (UniProt Q8TAX9)
MBP-GSDMB K117A (human) = MBP-GSDMB K117A (human) (UniProt Q8TAX9)
MBP-GSDMB K119A (human) = MBP-GSDMB K119A (human) (UniProt Q8TAX9)
MBP-GSDMB R99A (human) = MBP-GSDMB R99A (human) (UniProt Q8TAX9)
MBP-GSDMB E95A (human) = MBP-GSDMB E95A (human) (UniProt Q8TAX9)

Measured: binding

IpaH7.8 protein (residues 23–565) (from UniProt P18014 23-565) (enzyme)
binds: all assays above

These are yes or no findings as the source states them, for the method shown. Binding calls can cover weak binding; strength is not graded here.
